The nature of this data set: peptide made by a vendor. Particulars: whole synthesis, amino acid analysis, mass spectrometry and HPLC.

Results on 1 substance are retold here after patent US7205273B2 (The University of British Columbia, priority 1996, dated 2007).

Turning to Ac-GLFEAIAGFIENGWEGMIDGK, the “final HPLC purity” value is reported as “greater than 95%”.
